PubChem BioAssay AID1508597 | Cure First | 2020
Shown is a random part of the about 2,100 reagents, under one of the conditions tested. 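Calls flag viability under 80% in either arm, not effects specific to rucaparib; the reference for percent is not stated.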 The numbers tell different reagents against one gene apart. Some reagents were tested in more than one well and are listed for each. Not stated in the record: the 100% reference.

Aim: 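Survival screen with siRNA in ovarian cancer cells derived from patients, with or without rucaparib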 (primary screen)
Cells: human ovarian carcinoma lines grown from tumours: OCI-P5x (papillary serous) and OCI-C5x (clear cell)
Reagents: siRNA pool against human genes, 1.25 pmol siRNA per well
Duration: 72 h or 96 h, depending on the cell culture
Conditions: rucaparib 20 µM (about IC30) or vehicle, present until read-out
Rucaparib or vehicle: Rucaparib
Cell line: OCI-P5x (serous)
Measured: 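Luminescent ATP-based viability assay read 72 or 96 h after transfection, depending on culture, given as normalised percent viability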
Scale: viability, normalised: higher = more viable cells remaining
Hit rule: 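a well counts as a hit if its normalised viability is under 80 percent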
Meaning of the calls: active = viability under 80%; inactive = viability 80% or more

target | reagent no. | technical replicate | viability, normalised (%) | call
RPS6KA2 | 1 | 1 | 88.1 | inactive
RPS6KA2 | 1 | 2 | 66.2 | active
RPS6KA2 | 1 | 3 | 110 | inactive
AK3 | 1 | 1 | 49.5 | active
AK3 | 1 | 2 | 61.3 | active
AK3 | 1 | 3 | 61.2 | active
PDK2 | 1 | 1 | 124 | inactive
PDK2 | 1 | 2 | 99.5 | inactive
PDK2 | 1 | 3 | 98.9 | inactive
SHH | 1 | 1 | 48.6 | active
SHH | 1 | 2 | 60 | active
SHH | 1 | 3 | 47.8 | active
SUPT16H | 1 | 1 | 45.4 | active
SUPT16H | 1 | 1 | 55.2 | active
SUPT16H | 1 | 2 | 71.4 | active
SUPT16H | 1 | 2 | 47.1 | active
SUPT16H | 1 | 3 | 45.6 | active
SUPT16H | 1 | 3 | 61 | active
RPS6KB2 | 1 | 1 | 90.3 | inactive
RPS6KB2 | 1 | 2 | 92.4 | inactive
RPS6KB2 | 1 | 3 | 80.6 | inactive
CLDN8 | 1 | 1 | 57.3 | active
CLDN8 | 1 | 2 | 65.9 | active
CLDN8 | 1 | 3 | 61.9 | active
GTF2H1 | 1 | 1 | 85.7 | inactive
GTF2H1 | 1 | 2 | 82.5 | inactive
GTF2H1 | 1 | 3 | 68.4 | active
ADCK1 | 1 | 1 | 116 | inactive
ADCK1 | 1 | 2 | 101 | inactive
ADCK1 | 1 | 3 | 89.1 | inactive

8 neighbouring reagents from above, quoted:
target | reagent no. | technical replicate | viability, normalised (%) | call
RPS6KA2 | 1 | 3 | 110 | inactive
AK3 | 1 | 1 | 49.5 | active
AK3 | 1 | 2 | 61.3 | active
AK3 | 1 | 3 | 61.2 | active
PDK2 | 1 | 1 | 124 | inactive
PDK2 | 1 | 2 | 99.5 | inactive
PDK2 | 1 | 3 | 98.9 | inactive
SHH | 1 | 1 | 48.6 | active

The results go on.
target | reagent no. | technical replicate | viability, normalised (%) | call
PBK | 1 | 1 | 81.2 | inactive
PBK | 1 | 1 | 39.3 | active
PBK | 1 | 2 | 67.9 | active
PBK | 1 | 2 | 66.1 | active
PBK | 1 | 3 | 87.3 | inactive
PBK | 1 | 3 | 61.7 | active
EPC2 | 1 | 1 | 64.3 | active
EPC2 | 1 | 2 | 78.4 | active
EPC2 | 1 | 3 | 77.6 | active
SMARCAL1 | 1 | 1 | 84.7 | inactive
SMARCAL1 | 1 | 1 | 55.5 | active
SMARCAL1 | 1 | 2 | 48.8 | active
SMARCAL1 | 1 | 2 | 99.8 | inactive
SMARCAL1 | 1 | 3 | 47.5 | active
SMARCAL1 | 1 | 3 | 82.8 | inactive
DYRK2 | 1 | 1 | 102 | inactive
DYRK2 | 1 | 2 | 114 | inactive
DYRK2 | 1 | 3 | 112 | inactive
DHX15 | 1 | 1 | 62.7 | active
DHX15 | 1 | 2 | 64.7 | active
DHX15 | 1 | 3 | 65.9 | active
CDK12 | 1 | 1 | 53.4 | active
CDK12 | 1 | 1 | 57.5 | active
CDK12 | 1 | 2 | 46.2 | active
CDK12 | 1 | 2 | 66.9 | active
CDK12 | 1 | 3 | 57.8 | active
CDK12 | 1 | 3 | 69.5 | active
CDK12 | 2 | 1 | 89.8 | inactive
CDK12 | 2 | 2 | 84.7 | inactive
CDK12 | 2 | 3 | 70.8 | active
WRNIP1 | 1 | 1 | 89.7 | inactive
WRNIP1 | 1 | 2 | 75.6 | active
WRNIP1 | 1 | 3 | 64.5 | active
RABGGTA | 1 | 1 | 37.8 | active
RABGGTA | 1 | 2 | 37 | active
RABGGTA | 1 | 3 | 35.6 | active
PRKRA | 1 | 1 | 40.2 | active
PRKRA | 1 | 2 | 52 | active
PRKRA | 1 | 3 | 53.1 | active
PRMT3 | 1 | 1 | 51.9 | active
PRMT3 | 1 | 2 | 53.3 | active
PRMT3 | 1 | 3 | 61.8 | active
MAPKAPK3 | 1 | 1 | 70.8 | active
MAPKAPK3 | 1 | 2 | 55 | active
MAPKAPK3 | 1 | 3 | 69.6 | active
